# According to publication PMC3433420:
# The chains behind the UniProt entries cited, without tags or fusion partners. Residues count along the entry.
# UniProt Q14451, residues 431-527: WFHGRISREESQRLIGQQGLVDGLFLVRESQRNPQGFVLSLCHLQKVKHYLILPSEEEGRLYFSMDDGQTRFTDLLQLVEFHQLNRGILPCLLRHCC
# UniProt Q13882, residues 78-170: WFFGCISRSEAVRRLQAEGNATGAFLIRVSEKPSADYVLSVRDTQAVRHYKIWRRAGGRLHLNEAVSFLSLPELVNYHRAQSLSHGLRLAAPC
# No constants are given. Whether binding was seen depends on the method and setting.
# Columns and labels:
# [1] = biological target: T1, ErbB2pY1196 phosphopeptide, rhodamine-labelled (human); experiment: condition: protein to 10 uM; detection threshold KD 20 uM; fluorescence polarisation; saturation binding in solution: rhodamine peptide fixed at 10 nM, protein titrated 0.002-10 uM, 20 min at room temperature; assay buffer 20 mM HEPES, 100 mM KCl, 0.1% Tween-20, 5 mM DTT, pH 7.8; apparent KD; both purified
# T1 sequence (peptide, phosphotyrosine at position 5 (Tyr1196); rhodamine on the N-terminus): ENPEYLTPQGGAD
# [2] = biological target: T2, ErbB2pY735 phosphopeptide, rhodamine-labelled (human); experiment: as above
# T2 sequence (peptide, phosphotyrosine at position 5 (Tyr735); rhodamine on the N-terminus): FGTVYKGIWIPDD
Substance,binding [1],binding [2]
GRB7 SH2 domain (from UniProt Q14451 431-527) (domain or fragment),no binding,no binding
PTK6 SH2 domain (from UniProt Q13882 78-170) (domain or fragment),,no binding
SRC SH2 domain (from UniProt P12931-1 151-248) (domain or fragment),,no binding
